{
  "sequences": {"note": "The chains behind the UniProt entries cited, without tags or fusion partners. Where a name states a change or a piece, a line headed by the entry shows the natural chain unless it says otherwise.", "UniProt P18054": "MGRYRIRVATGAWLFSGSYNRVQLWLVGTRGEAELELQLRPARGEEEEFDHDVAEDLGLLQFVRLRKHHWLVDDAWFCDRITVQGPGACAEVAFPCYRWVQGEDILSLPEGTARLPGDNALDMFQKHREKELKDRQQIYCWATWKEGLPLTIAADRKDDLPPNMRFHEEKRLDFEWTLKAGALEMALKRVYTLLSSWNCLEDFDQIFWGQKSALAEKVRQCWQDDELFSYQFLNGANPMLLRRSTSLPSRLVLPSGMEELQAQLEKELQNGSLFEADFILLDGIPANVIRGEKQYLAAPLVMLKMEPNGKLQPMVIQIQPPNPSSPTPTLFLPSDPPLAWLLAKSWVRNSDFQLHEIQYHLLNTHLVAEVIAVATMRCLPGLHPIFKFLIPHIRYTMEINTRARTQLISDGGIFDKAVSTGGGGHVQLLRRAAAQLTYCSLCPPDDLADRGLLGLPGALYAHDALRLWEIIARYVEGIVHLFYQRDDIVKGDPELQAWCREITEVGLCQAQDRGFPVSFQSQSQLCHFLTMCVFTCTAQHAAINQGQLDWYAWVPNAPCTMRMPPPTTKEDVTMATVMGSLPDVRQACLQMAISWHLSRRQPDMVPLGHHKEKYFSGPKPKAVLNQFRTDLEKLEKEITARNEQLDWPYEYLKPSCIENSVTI"},
  "source": "PubChem BioAssay AID1671190",
  "about": "(National Center for Advancing Translational Sciences (NCATS), 2021)",
  "note": "Hit rate of the full screen: of about 580,000 compounds, about 6,100 (1.1%) were called active. The shares of active, inactive and inconclusive entries below differ from those in the screen. Calls follow the shape of the dose curve; as a rule, active = well fitted inhibition curve with a large enough effect; inconclusive = small, poorly fitted or top-dose-only effect, or another doubt; inactive = no such curve, though single readings can be large or run the other way. Where the call is inconclusive, the potency comes from a doubtful curve fit. % is scaled to controls: 0 for no effect and ±100 for the full control effect; potency is read from the fitted curve at half-maximal effect.",
  "data": [
    {"target": "Polyunsaturated fatty acid lipoxygenase ALOX12 (Homo sapiens) (UniProt P18054)", "assay": "Primary qHTS assay for inhibitors of human arachidonate 12S-lipoxygenase (ALOX12): Round 2", "conditions": "purified 12hLO, xylenol orange hydroperoxide absorbance; activity change, negative = inhibition: at 108 µM (top of the series) unless noted", "in_short": "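Purified human 12hLO at 150 nM in 25 mM Hepes, 0.01% Triton X-100, pH 7.0, preincubated 15 min at room temperature with compound. Reaction started with 40 uM arachidonic acid, 30 min at room temperature. Hydroperoxide measured by Fe-xylenol orange, 573/405 nm absorbance ratio.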", "values": [
      {"smiles": "Cc1ccc(C(=O)OCC(=O)Nc2cccc(F)c2)cc1C", "Potency": "inconclusive: 31.6 µM [inhibitor, partial curve, poor fit]"},
      {"smiles": "CC1CC1C(=O)OCC(=O)NNC(=O)COc1ccc(Br)cc1", "note": "(configuration not stated)", "activity change, negative = inhibition": "inactive: -17.8%"},
      {"smiles": "O=C(NCCc1csc(-c2cccnc2)n1)c1cccc2ccccc12", "activity change, negative = inhibition": "inactive: 10.1%"},
      {"smiles": "CSc1ccc(-c2nc3cnccn3c2NC2CCCCC2)cc1", "Potency": "inconclusive: 141 µM [inhibitor, partial curve, poor fit]"},
      {"smiles": "Cc1cc(C)cc(N(CCC#N)C(=O)CSC2=Nc3ccccc3C3CC=NN23)c1", "note": "(configuration not stated)", "activity change, negative = inhibition": "inactive: 3.48%"},
      {"smiles": "Cc1ccccc1OCCn1c(CCNC(=O)C(C)C)nc2ccccc21", "activity change, negative = inhibition": "inactive: 22.8%"},
      {"smiles": "Cn1nc(C(F)(F)F)c2cc(NC(=O)OCc3ccc(F)cc3)sc21", "Potency": "inconclusive: 7.08 µM [inhibitor, full curve, poor fit]"},
      {"smiles": "COc1cccc(-n2c(SCC(=O)Nc3cc(C)on3)nc3c([nH]c4ccccc43)c2=O)c1", "Potency": "inconclusive: 50.1 µM [inhibitor, partial curve, poor fit]"},
      {"smiles": "CCOC(=O)C(O)(c1ccc(N(CC)C(=O)Nc2ccc(Cl)cc2)cc1)C(F)(F)F", "note": "(configuration not stated)", "Potency": "inconclusive: 100 µM [inhibitor, single point]"},
      {"smiles": "CC1(C)CC(=O)C(C(C#Cc2ccccc2)C2=C(O)CC(C)(C)CC2=O)=C(O)C1", "Potency": "inconclusive: 50.1 µM [inhibitor, partial curve, poor fit]"},
      {"smiles": "COc1ccc(C(=O)COC(=O)c2cnc(C)cn2)cc1OC", "Potency": "inconclusive: 39.8 µM [inhibitor, partial curve, poor fit]"},
      {"smiles": "CCC1Cc2[nH]c(=S)[nH]c(=O)c2C(c2ccc(Cl)cc2)O1", "note": "(configuration not stated)", "Potency": "inconclusive: 100 µM [inhibitor, single point]"},
      {"smiles": "O=C(COC(=O)C(Cc1ccccc1)N1C(=O)C2C3C=CC(C4CC34)C2C1=O)c1ccc(Oc2c(Cl)cccc2[N+](=O)[O-])cc1", "note": "(configuration not stated)", "Potency": "inconclusive: 0.355 µM [inhibitor, full curve, poor fit]"},
      {"smiles": "O=C(NCc1ccc(OC(F)(F)F)cc1)C1CCN(S(=O)(=O)/C=C/c2ccccc2)CC1", "Potency": "inconclusive: 50.1 µM [inhibitor, partial curve, poor fit]"},
      {"smiles": "COc1ccc2nc(C)cc(Nc3ccc(Cl)c(Cl)c3)c2c1", "Potency": "inconclusive: 56.2 µM [inhibitor, partial curve, poor fit]"},
      {"smiles": "O=C1c2ccccc2[C@@H]2C[C@@H](O)[C@H](Nc3cccc(C(F)(F)F)c3)CCN12", "activity change, negative = inhibition": "inactive: -5.46%"},
      {"smiles": "C[C@@H]1CC=C[C@H]2[C@H]1C(=O)N(Cc1ccccc1)[C@H]2c1ccoc1", "Potency": "inconclusive: 44.7 µM [inhibitor, partial curve, poor fit]"},
      {"smiles": "CC(C)c1cc(C(=O)Nc2sc3c(c2C#N)CCC3)no1", "activity change, negative = inhibition": "inactive: -25.7%"},
      {"smiles": "CCC1=NN(C(=O)C(=O)Nc2ccc(Br)cc2)C(O)(C(F)(F)F)C1", "note": "(configuration not stated)", "Potency": "inconclusive: 56.2 µM [inhibitor, partial curve, poor fit]"},
      {"smiles": "CCN(CC)CCCN(C(=O)c1ccco1)c1nc(-c2ccc(C)cc2)cs1", "Potency": "inconclusive: 31.6 µM [inhibitor, partial curve]"},
      {"smiles": "C=CCNC(=O)C1CCN(S(=O)(=O)c2ccccc2)CC1", "Potency": "inconclusive: 50.1 µM [inhibitor, partial curve, poor fit]"},
      {"smiles": "CCN1CCN(S(=O)(=O)c2ccc(Cl)c(C(=O)N(CC(C)C)C3CCS(=O)(=O)C3)c2)CC1", "note": "(configuration not stated)", "Potency": "inconclusive: 63.1 µM [inhibitor, partial curve, poor fit]"},
      {"smiles": "CCOCCOC(=O)COc1ccc2c(=O)c(Oc3cc(C)c(Cl)c(C)c3)coc2c1", "Potency": "inconclusive: 126 µM [inhibitor, partial curve, poor fit]"},
      {"smiles": "Cc1ccc(NC(=O)NCc2c(C)nn(C)c2C)cc1C", "activity change, negative = inhibition": "inactive: -3.25%"},
      {"smiles": "N#Cc1nc(-c2ccc(Cl)cc2)oc1NCc1ccc(F)cc1", "Potency": "inconclusive: 25.1 µM [inhibitor, partial curve, poor fit]"},
      {"smiles": "O=C(CCc1nnc2ccc(NCc3ccco3)nn12)Nc1cccnc1", "activity change, negative = inhibition": "inactive: 11.8%"},
      {"smiles": "COc1ccccc1CNC(=O)C1Cn2cccc2C(=O)N1Cc1cccnc1", "note": "(configuration not stated)", "activity change, negative = inhibition": "inactive: 40.4%"},
      {"smiles": "CCc1ccc(N=C2NC(=O)/C(=C/c3ccc(OCC(=O)O)cc3)S2)cc1", "Potency": "inconclusive: 39.8 µM [inhibitor, partial curve]"},
      {"smiles": "O=C(C1CCCC1)N1CCOC[C@H](Oc2ccc(C(F)(F)F)cn2)C1", "activity change, negative = inhibition": "inactive: 49.9% [at 176 µM]"},
      {"smiles": "COc1ccc(S(=O)(=O)N2CCSC2c2ccc(OC)c(OC)c2)cc1", "note": "(configuration not stated)", "Potency": "inconclusive: 56.2 µM [inhibitor, partial curve, poor fit]"},
      {"smiles": "CCOc1ccc2nc(SCC(=O)N(C)C3CCS(=O)(=O)C3)[nH]c2c1", "note": "(configuration not stated)", "Potency": "inconclusive: 28.2 µM [inhibitor, partial curve]"},
      {"smiles": "CC(=O)c1sc(-c2cccc(F)c2)nc1C", "Potency": "inconclusive: 50.1 µM [inhibitor, partial curve, poor fit]"},
      {"smiles": "COC1=C(Nc2ccc(O)cc2)C(=O)c2ccccc2C1=O", "Potency": "inconclusive: 112 µM [inhibitor, partial curve, poor fit]"},
      {"smiles": "O=C(CSc1nccn2nc(-c3cccc4ccccc34)cc12)NCc1ccco1", "Potency": "inconclusive: 7.08 µM [inhibitor, full curve, poor fit]"},
      {"smiles": "O=C(CCc1nc2sc3c(c2c(=O)[nH]1)CCCC3)N1CCN(c2ccccc2)CC1", "Potency": "inconclusive: 44.7 µM [inhibitor, partial curve, poor fit]"},
      {"smiles": "CC1CCC/C(=N\\NC(=O)Nc2ccccc2)C1", "note": "(configuration not stated)", "activity change, negative = inhibition": "inactive: -2.86%"},
      {"smiles": "O=C(O)c1cccc(N/N=C/c2cccnc2)c1", "activity change, negative = inhibition": "inactive: -15.7%"},
      {"smiles": "COc1cccc(C(=O)OCc2ccc(C#N)cc2)c1OC", "Potency": "inconclusive: 2 µM [inhibitor, full curve, poor fit]"},
      {"smiles": "CC1=C(C(=O)OCCN(Cc2ccccc2)c2ccccc2)C(c2cccc([N+](=O)[O-])c2)C(P2(=O)OCC(C)(C)CO2)=C(C)N1", "note": "(configuration not stated)", "Potency": "inconclusive: 11.2 µM [inhibitor, full curve]"},
      {"smiles": "Cc1cc2oc(=O)cc(CN3CCN(Cc4ccccc4)CC3)c2cc1O", "Potency": "inconclusive: 126 µM [inhibitor, partial curve, poor fit]"},
      {"smiles": "CNC(C)C(=O)NC(C(=O)N1CCCC1C(=O)NNc1ccccc1)C(C)C", "note": "(configuration not stated)", "Potency": "inconclusive: 2.51 µM [inhibitor, full curve, poor fit]"},
      {"smiles": "Cc1cccc(-c2oc(C)c(C)[n+]2[O-])c1", "Potency": "inconclusive: 3.16 µM [inhibitor, full curve, poor fit]"},
      {"smiles": "CN(c1ccc2sc(C(=O)NC3CCCC3)cc2c1)S(=O)(=O)c1ccc(Cl)cc1", "Potency": "inconclusive: 0.355 µM [inhibitor, full curve, poor fit]"},
      {"smiles": "COc1cc(NC(=O)CC(C)n2nc(C)cc2C)cc(OC)c1", "note": "(configuration not stated)", "activity change, negative = inhibition": "inactive: -0.511%"},
      {"smiles": "Cc1sc(-n2c(C)cc(/C=C3\\SC(=S)NC3=O)c2C)c(C#N)c1C", "Potency": "inconclusive: 31.6 µM [inhibitor, partial curve]"},
      {"smiles": "CC(=O)N(O)c1ccc(C=Cc2ccccc2)cc1", "Potency": "inconclusive: 50.1 µM [inhibitor, partial curve, poor fit]"},
      {"smiles": "COc1ccc(-c2cc3nc(CCl)[nH]c(=O)c3s2)cc1", "Potency": "inconclusive: 0.447 µM [inhibitor, full curve, poor fit]"},
      {"smiles": "CCc1nc2c(OCCC3CCCCC3)cccn2c1N(C)C(=O)c1ccc(OC)cc1", "Potency": "inconclusive: 50.1 µM [inhibitor, partial curve, poor fit]"},
      {"smiles": "CCOc1ccc(NC(=O)CN(C)C(=O)c2cn(-c3ccccc3)nc2-c2cccs2)cc1OCC", "activity change, negative = inhibition": "inactive: 9.83%"},
      {"smiles": "Oc1ccc2ccccc2c1C=NC12CN3CCN(CN(C3)C1)C2", "activity change, negative = inhibition": "inactive: 7.77%"},
      {"smiles": "Cc1ccc(C)c(Cn2nnc3c(=O)[nH]c(C(=O)NCc4ccco4)nc32)c1", "Potency": "inconclusive: 39.8 µM [inhibitor, partial curve]"},
      {"smiles": "CC(=O)Nc1nc2n(n1)C(c1ccccc1)C=C(c1ccccc1)N2", "note": "(configuration not stated)", "activity change, negative = inhibition": "inactive: 12.6%"},
      {"smiles": "COc1cccc(C(=O)/C=C/Nc2ccc(S(=O)(=O)Nc3ncccn3)cc2)c1", "activity change, negative = inhibition": "inactive: -29.1%"},
      {"smiles": "CCOC(=O)c1cnc2ccc(OCC)cc2c1N1CCN(C)CC1", "activity change, negative = inhibition": "inactive: -7.75%"},
      {"smiles": "O=c1cc(-c2ccccc2)[nH]c2[nH]n(-c3ccccc3)c(=O)c12", "Potency": "inconclusive: 63.1 µM [inhibitor, partial curve, poor fit]"},
      {"smiles": "COc1c(CNC2CCCN(Cc3ccccc3)C2)c(C)nn1C", "note": "(configuration not stated)", "activity change, negative = inhibition": "inactive: 26.4%"},
      {"smiles": "CCc1ccc(S(=O)(=O)/N=C2\\C=C(Nc3ccc(C(=O)O)cc3)C(=O)c3ccccc32)cc1", "activity change, negative = inhibition": "inactive: -21.5%"},
      {"smiles": "COc1ccccc1NC(=O)c1ccc(NC(=O)COC(=O)c2cncc(Br)c2)cc1", "Potency": "inconclusive: 35.5 µM [inhibitor, single point]"},
      {"smiles": "CCC1Oc2ccc(NC(=O)Cc3ccccc3)cc2CN(Cc2ccc3c(c2)OCO3)C1=O", "note": "(configuration not stated)", "Potency": "inconclusive: 17.8 µM [inhibitor, full curve]"},
      {"smiles": "CCOc1ccccc1NC(=O)CN1C(=O)C(c2ccccc2)=NC12CCCCC2", "activity change, negative = inhibition": "inactive: -5.29%"},
      {"smiles": "CC1=C(C(=O)OCCC#N)C(c2cc3c(cc2Br)OCO3)NC(=O)N1", "note": "(configuration not stated)", "Potency": "inconclusive: 2 µM [inhibitor, full curve, poor fit]"},
      {"smiles": "CCOc1ccc(C(CCc2ccccc2)NC(=O)c2ccccc2)cc1OCC", "note": "(configuration not stated)", "activity change, negative = inhibition": "inactive: 5.1%"},
      {"smiles": "CC(C)(C)c1ccc(C(=O)N2CCC(c3n[nH]c(=O)n3Cc3ccc(F)cc3)CC2)cc1", "activity change, negative = inhibition": "inactive: 19.4%"},
      {"smiles": "N#Cc1ccc(CN2CCC3(CC(Cc4ccccc4)=NO3)C2)cc1", "note": "(configuration not stated)", "activity change, negative = inhibition": "inactive: 13.2%"},
      {"smiles": "Cc1cc(Nc2ccc(N3CCOCC3)cc2)c2cccc(C)c2n1", "Potency": "inconclusive: 112 µM [inhibitor, single point]"},
      {"smiles": "Cc1cc(Nc2nc3ccccc3nc2NS(=O)(=O)c2ccccc2)ccc1Cl", "activity change, negative = inhibition": "inactive: -23.1%"},
      {"smiles": "Cc1ccc2c(c1)C(O)(c1c(C)[nH]c3ccccc13)C(=O)N2", "note": "(configuration not stated)", "Potency": "inconclusive: 44.7 µM [inhibitor, partial curve, poor fit]"}
    ]}
  ]
}
